# Measured values reported in PubChem BioAssay (NCATS).
# Values joined by “and” are separate entries in the source; they are usually repeats but may differ in a detail not shown here. Identical values can stand only once. Some of the results follow. Further columns of the screen follow, without active or inactive calls. Compounds called inactive in the main read-out are mostly missing here. For some of these results: Words in brackets tell the shape of the fitted curve; partial curves, single points and poor fits give uncertain potencies.
# Columns and labels:
# [1] = qHTS Assay for Inhibitors of PDE-IV (AID 607); settings: HEK293 ACTOne CNG channel cells, membrane potential fluorescence; measured here: parental cell counter-screen
# Procedure, shortened: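 Live HEK293 cells with a modified cyclic nucleotide-gated (CNG) channel report intracellular cAMP via membrane-potential dye fluorescence (ex 535/em 590 nm). Endogenous PDE-IV was targeted. Compounds were tested at up to 22.9 uM final; RO 20-1724 100 uM served as control.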
# [2] = qHTS Assay for Lipid Storage Modulators (AID 1519); settings: Drosophila S3 cells, BODIPY lipid droplet/cell ratio, laser cytometry, cells loaded with oleic acid
# Procedure, shortened: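 Cells seeded at 5,000 per well were treated with compounds over a concentration series and loaded with oleic acid (400 uM, as added). Lipid droplet fluorescence (488 nm excitation, 500-530 nm channel) was read by laser-scanning cytometry and normalized to 20 uM Triacsin C.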
# [3] = A High-Content qHTS Against Drug Library for the Identification of Small Molecules that Inhibit DYT1 Early Onset Primary Dystonia-Associated Cell Pathology (AID 1645839); settings: HEK293 Flp-In EGFP-delE TorsinA, punctate imaging, 48 h; measured here: cell count cytotoxicity
# Procedure, shortened: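 Cells were seeded and left for 24 h, then dosed with compound alongside tetracycline induction of mutant EGFP-TorsinA. They were incubated for 48 h, fixed in 4% paraformaldehyde, permeabilized and imaged for mislocalization (%pathology) and cell count.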
# [4] = S16 Schwann cell PMP22 intronic element beta-lactamase assay (AID 624044); settings: S16 rat Schwann cells, PMP22 element beta-lactamase FRET, 24 h
# Procedure, shortened: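 Beta-lactamase reporter under a PMP22 intronic regulatory element in stable S16 rat Schwann cells; 24 h compound exposure. 460 nm blue signal normalized between DMSO (0%) and potassium clavulanate, with 535 nm FRET tracking viability; curves classed by r2 and response.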
# [5] = qHTS assay for small molecule antagonists of androgen receptor signaling (AID 588516); settings: AR-UAS-bla HEK293, beta-lactamase ratio, antagonist mode, 16 h
# Procedure, shortened: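 Antagonist mode: inhibition of R1881-stimulated (10 nM final) bla reporter in GeneBLAzer AR HEK 293 cells, 16 h at 37C, compounds titrated. IC50 and efficacy from Hill-equation fits of 405/460–530 nm FRET ratios.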
# [6] = qHTS assay for small molecule antagonists of peroxisome proliferator-activated receptor delta signaling (AID 588535); settings: HEK293T PPARd-UAS-bla, beta-lactamase FRET ratio, 18 h; 460 nm channel;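 further: cells co-treated with a PPAR-delta agonist as stimulator during compound exposure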
# Procedure, shortened: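 Fluorescence from CCF4-loaded GeneBLAzer PPAR-delta-UAS-bla HEK293T cells (2 hrs RT loading) quantified reporter inhibition after an 18 hr, 37 C compound exposure across a titration.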
# [7] = qHTS assay for small molecule antagonists of peroxisome proliferator-activated receptor gamma signaling (AID 588537); settings: HEK293 PPARg-UAS-bla, beta-lactamase ratio, antagonist mode; measured here: W460 blue channel
# Procedure, shortened: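 Fluorescence at 460 and 530 nm (405 nm excitation) reported beta-lactamase cleavage of CCF4 after 2 h room-temperature loading. HEK293 reporter cells in 1% charcoal/dextran-treated FBS had received compound and rosiglitazone for 16 h.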
# [8] = qHTS assay for small molecule antagonists of vitamin D receptor signaling (AID 588541); settings: HEK293T VDR-UAS-bla, beta-lactamase ratio, antagonist mode; measured here: W460 blue channel (cell viability)
# [9] = qHTS assay for small molecule agonists of retinoid X receptor alpha signaling (AID 588544); settings: HEK293T RXRa-UAS-bla, beta-lactamase reporter, 18 h; 530 nm emission
# [10] = qHTS assay for small molecule antagonists of retinoid X receptor alpha signaling (AID 588546); settings: HEK293T RXRa-UAS-bla, beta-lactamase ratio, antagonist mode; measured here: W530 green channel, cytotoxicity proxy;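 further: cells stimulated with 9-cis-retinoic acid as agonist; on the % scale 0 is the no-effect control and ±100 the full control effect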
# Procedure, shortened: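 Beta-lactamase reporter inhibition, read as CCF4 fluorescence ratio (ex 405, em 460/530 nm) after 2 h at RT. HEK293T UAS-bla cells, 2500/well, were stimulated with 9-cis-RA at 500 or 100 nM final alongside test compound for 18 h at 37 C.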
# [11] = measured here: cell count channel max response
# [12] = measured here: cell number channel AC50
# [13] = measured here: lipid (BODIPY) channel AC50
# [14] = measured here: lipid channel max response
# [15] = measured here: 460 nm blue channel
# [16] = measured here: 530 nm viability channel
compound,measurement,setting,value
O=C1NCN(c2ccccc2)C12CCN(CCCOc1ccc(F)cc1)CC2,AC50,[1],"5.01 µM [rising, partial curve]"
same,max response,[2]; [11],31.5%
same,AC50,[2]; [12],"39.8 µM [rising, single point]"
same,AC50,[2]; [13],"14.1 µM [rising, single point]"
same,max response,[2]; [14],35.8%
same,AC50,[3],"7.08 µM [falling, partial curve, poor fit]"
Oc1ccc2[nH]cc(CCCCN3CC=C(c4ccccc4)CC3)c2c1,max response,[2]; [11],30.7%
same,AC50,[2]; [12],"1.26 µM [rising, full curve, poor fit]"
same,AC50,[2]; [13],"39.8 µM [rising, single point]"
same,max response,[2]; [14],38.1%
same,AC50,[4]; [15],"12.6 µM [falling, full curve, poor fit]"
same,AC50,[4]; [16],"0.0631 µM [falling, full curve]"
same,AC50,[3],"8.91 µM [falling, partial curve]"
COc1ccc(C2Oc3c(I)c(OC)cc(OC)c3CC2O)cc1OC (centres undefined),max response,[2]; [11],41.3%
same,AC50,[2]; [12],"1.12 µM [rising, partial curve, poor fit]"
same,AC50,[2]; [13],"6.31 µM [rising, partial curve, poor fit]"
same,max response,[2]; [14],55.2%
CN(C)C(=S)SSC(=S)N(C)C,max response,[2]; [11],-39.3%
same,AC50,[2]; [12],"35.5 µM [falling, single point]"
same,AC50,[2]; [13],"31.6 µM [falling, single point]"
same,max response,[2]; [14],-78.3%
same,AC50,[5]; measured here: W460 blue channel fit,"44.7 µM [falling, partial curve, poor fit] and 708 nM [falling, full curve]"
same,AC50,"[5]; measured here: W530 green channel, cytotoxicity/artifact","891 nM [rising, full curve, poor fit] and 22.4 µM [rising, single point]"
same,max response,[6],-0.631%
same,AC50,[7],"31.6 µM [falling, partial curve, poor fit]"
same,AC50,[8],"39.8 µM [falling, partial curve, poor fit] and 44.7 µM [falling, partial curve, poor fit]"
same,max response,[9],57.5% and 24.5%
same,max response,[10],47.2%
same,AC50,[4]; [15],"25.1 µM [falling, partial curve, poor fit]"
same,AC50,[4]; [16],"22.4 µM [rising, partial curve]"
same,AC50,[3],"35.5 µM [falling, single point]"
CCCCCC[C@H]1C(=O)O[C@H](C)[C@H](NC(=O)c2cccc(NC=O)c2O)C(=O)O[C@@H](C)[C@H]1OC(=O)CC(C)C,max response,[2]; [11],-54.5%
same,AC50,[2]; [12],"0.224 µM [falling, full curve]"
same,AC50,[2]; [13],"0.158 µM [falling, full curve]"
same,max response,[2]; [14],-104%
C[C@H](CCC(=O)O)[C@H]1CC[C@@H]2[C@H]3CC[C@H]4C[C@H](O)CC[C@]4(C)[C@@H]3CC[C@@]21C,max response,[2]; [11],57.8%
same,AC50,[2]; [12],"39.8 µM [rising, single point]"
same,AC50,[2]; [13],"39.8 µM [rising, single point]"
same,max response,[2]; [14],73.1%
CC(CCC(=O)O)C1CCC2C3C(=O)C[C@@H]4CC(=O)CC[C@@]4(C)C3CC(=O)[C@]12C (some centres undefined),max response,[2]; [11],37.2%
same,AC50,[2]; [12],"6.31 µM [rising, full curve]"
same,AC50,[2]; [13],"3.16 µM [rising, partial curve]"
same,max response,[2]; [14],13.3%
CC(C)(C)NCC(O)c1cc(Cl)c(N)c(Cl)c1 (centres undefined),max response,[2]; [11],43.8%
same,AC50,[2]; [12],"25.1 µM [rising, partial curve, poor fit]"
same,AC50,[2]; [13],"39.8 µM [rising, single point]"
same,max response,[2]; [14],62.4%
same,AC50,[3],"10 µM [falling, partial curve, poor fit]"
CC(=O)C1=C(O)[C@@H]2[C@@H]3c4c[nH]c5cccc(c45)C[C@@H]3C(C)(C)N2C1=O,max response,[2]; [11],74.3%
same,AC50,[2]; [12],"31.6 µM [rising, partial curve, poor fit]"
same,AC50,[2]; [13],"28.2 µM [rising, partial curve, poor fit]"
same,max response,[2]; [14],87.9%
NC(C(=O)O)c1cc(=O)[nH]o1 (centres undefined),max response,[2]; [11],45.2%
same,AC50,[2]; [12],"39.8 µM [rising, single point]"
same,AC50,[2]; [13],"39.8 µM [rising, single point]"
same,max response,[2]; [14],44.9%
COC(=O)[C@]1(C)CC[C@@]2(C)CC[C@@]3(C)C4=CC=C5C(=CC(=O)C(O)=C5C)[C@@]4(C)CC[C@@]3(C)C2C1 (some centres undefined),max response,[2]; [11],-84.3%
same,AC50,[2]; [12],"20 µM [falling, partial curve]"
same,AC50,[2]; [13],"7.08 µM [falling, partial curve]"
same,max response,[2]; [14],-98.7%
C=CCN1C[C@H](C)N([C@H](c2ccc(C(=O)N(CC)CC)cc2)c2cccc(O)c2)C[C@H]1C,max response,[2]; [11],77.1%
same,AC50,[2]; [12],"28.2 µM [rising, partial curve, poor fit]"
same,AC50,[2]; [13],"28.2 µM [rising, partial curve, poor fit]"
same,max response,[2]; [14],101%
